# Laboratory results: PubChem BioAssay AID504793 (Drosophila RNAi Screening Center, 2011)
# Assay: 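Genes required for cells to halt at G2/M after double-strand DNA breaks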 (primary screen)
# Cell system: Drosophila S2R+ cells
# Reagent: long dsRNA against Drosophila genes, about 0.25 µg dsRNA per well
# Time to read-out: 4 days of dsRNA, then 4 hours of drug before read-out
# Treatment: doxorubicin 0.5 µM for 4 hours to cause double-strand breaks, in cells also given a low, harmless dose of dsRNA against nbs to sensitise the assay
# Measurement: 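Mitotic index as the number of phospho-histone H3-positive cells in each well following doxorubicin, given as raw counts without normalisation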
# Direction: mitotic cells: higher = more cells in mitosis, weaker G2 arrest
# Active means: 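a call needs confirmation in secondary tests, with other dsRNAs and a check of mitotic timing without damage, not just a high primary count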
# Meaning of the calls: active = confirmed in follow-up tests; inactive = not confirmed
# The deposit covers about 23,000 reagents; shown is an unselected part of those with a known target gene and a result. Of all reagents, 62 (0.27%) got an active call. 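Calls come from follow-up tests whose scores are not deposited, so confirmed genes may have low counts here; counts are not normalised per plate.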 The raw values are shown without normalisation. Names joined by + are all predicted targets of the reagent. No sequences are given here.
gene,dsRNA,"mitotic cells, replicate 1",Outcome
norpA (GeneID 31376),DRSC18806,10,inactive
CG6847 (GeneID 32778),DRSC19213,26,inactive
CG6847 (GeneID 32778),DRSC20009,13,inactive
CG33177 (GeneID 32438),DRSC19949,9,inactive
CG33306 (GeneID 2768915),DRSC01899,6,inactive
CG33306 (GeneID 2768915),DRSC29187,6,inactive
CG10570 + CG42502,DRSC28566,3,inactive
CG13492 (GeneID 37487),DRSC04137,4,inactive
CG34282 (GeneID 42248),DRSC16298,6,inactive
CG8006 (GeneID 38920),DRSC10949,9,inactive
kon (GeneID 35104),DRSC02033,5,inactive
CG7695 (GeneID 42234),DRSC16289,5,inactive
Nedd8 (GeneID 35151),DRSC02092,5,inactive
CG8545 (GeneID 36365),DRSC07210,8,inactive
CG10472 (GeneID 38688),DRSC09730,3,inactive
CG10472 (GeneID 38688),DRSC25310,7,inactive
CG31921 (GeneID 319027),DRSC00013,6,inactive
CG34227 (GeneID 36186),DRSC06788,9,inactive
CG34227 (GeneID 36186),DRSC07034,6,inactive
CG3640 (GeneID 37942),DRSC04399,7,inactive
CG10910 (GeneID 37052),DRSC06007,10,inactive
CG10910 (GeneID 37052),DRSC29305,3,inactive
CG32413 (GeneID 318018),DRSC21591,10,inactive
aly (GeneID 45960),DRSC08707,1,inactive
aly (GeneID 45960),DRSC21784,8,inactive
aly (GeneID 45960),DRSC39161,6,inactive
CG5011 (GeneID 50196),DRSC00039,15,inactive
CG5011 (GeneID 50196),DRSC00674,4,inactive
CG5011 (GeneID 50196),DRSC29184,6,inactive
CG15657 (GeneID 37408),DRSC04248,4,inactive
Rgk3 (GeneID 5740446),DRSC04250,9,inactive
Rgk3 (GeneID 5740446),DRSC04254,3,inactive
Rgk3 (GeneID 5740446),DRSC04255,5,inactive
Rgk3 (GeneID 5740446),DRSC28131,5,inactive
ND-SGDH (GeneID 46260),DRSC11102,5,inactive
CR10032 (GeneID 40877),DRSC12499,5,inactive
CR10032 (GeneID 40877),DRSC28183,5,inactive
Patsas (GeneID 34634),DRSC02975,5,inactive
Patsas (GeneID 34634),DRSC28826,6,inactive
Nepl19 (GeneID 43411),DRSC14875,11,inactive
Mct1 (GeneID 31198),DRSC18681,6,inactive
Mct1 (GeneID 31198),DRSC29006,3,inactive
CG17199 (GeneID 42401),DRSC15192,6,inactive
CG14607 (GeneID 40869),DRSC12551,2,inactive
msl-3 (GeneID 38779),DRSC11371,11,inactive
MESR3 (GeneID 35116),DRSC02463,3,inactive
CG12825 (GeneID 35726),DRSC06174,14,inactive
CG12825 (GeneID 35726),DRSC26984,10,inactive
CG2991 (GeneID 33488),DRSC00559,5,inactive
CG2991 (GeneID 33488),DRSC26300,8,inactive
vrs (GeneID 41537),DRSC15832,7,inactive
vrs (GeneID 41537),DRSC26261,4,inactive
Cpr11A (GeneID 32198),DRSC19861,12,inactive
Cpr11A (GeneID 32198),DRSC26786,10,inactive
Dbp21E2 (GeneID 33254),DRSC00616,4,inactive
Dbp21E2 (GeneID 33254),DRSC28425,8,inactive
tok (GeneID 42944),DRSC17087,5,inactive
tok (GeneID 42944),DRSC39140,10,inactive
ND-18 (GeneID 32936),DRSC19441,9,inactive
CG5781 (GeneID 34678),DRSC02893,7,inactive
Eig71Eg (GeneID 39708),DRSC11154,2,inactive
CG11694 (GeneID 40985),DRSC14354,5,inactive
CG11694 (GeneID 40985),DRSC24061,2,inactive
CG15471 (GeneID 31412),DRSC18054,6,inactive
CG15471 (GeneID 31412),DRSC26243,7,inactive
CG32700 (GeneID 31896),DRSC17857,7,inactive
CG32700 (GeneID 31896),DRSC17858,7,inactive
Tmem63 (GeneID 35779),DRSC06063,7,inactive
Tmem63 (GeneID 35779),DRSC27402,4,inactive
CG30053 (GeneID 246419),DRSC07260,5,inactive
Tsp66E (GeneID 39017),DRSC09683,7,inactive
Teh2 (GeneID 38502),DRSC08458,3,inactive
Teh2 (GeneID 38502),DRSC29037,2,inactive
CG4042 (GeneID 40291),DRSC11751,5,inactive
CG4042 (GeneID 40291),DRSC29114,6,inactive
CG8312 (GeneID 41163),DRSC16406,6,inactive
CG13566 (GeneID 37813),DRSC04203,2,inactive
CG13566 (GeneID 37813),DRSC25377,8,inactive
CG6707 (GeneID 39168),DRSC10697,5,inactive
CG32109 (GeneID 39444),DRSC09816,6,inactive
PIG-H + Kmn2,DRSC12653,15,inactive
CG11151 (GeneID 32335),DRSC19387,7,inactive
Trs31 (GeneID 36641),DRSC05975,6,inactive
wcd (GeneID 36831),DRSC07051,4,inactive
CG8314 (GeneID 36757),DRSC07144,5,inactive
Vps33B (GeneID 43077),DRSC15722,8,inactive
CG15484 (GeneID 34682),DRSC02494,15,inactive
CG15484 (GeneID 34682),DRSC22836,14,inactive
CG31473 (GeneID 318753),DRSC15443,,inactive
CG31473 (GeneID 318753),DRSC29111,3,inactive
didum (GeneID 35680),DRSC07603,5,inactive
CG2611 (GeneID 35324),DRSC02710,4,inactive
CG2611 (GeneID 35324),DRSC26640,8,inactive
CG13123 (GeneID 34303),DRSC02219,6,inactive
Pdzd8 (GeneID 32157),DRSC19355,10,inactive
Pdzd8 (GeneID 32157),DRSC23702,7,inactive
CG10467 + CG10469,DRSC28645,4,inactive
Exo70 (GeneID 38959),DRSC10774,6,inactive
f-cup (GeneID 41677),DRSC14139,6,inactive
f-cup (GeneID 41677),DRSC28933,4,inactive
PPO3 (GeneID 44513),DRSC04325,8,inactive
PPO3 (GeneID 44513),DRSC24194,6,inactive
CG4733 (GeneID 42368),DRSC15634,13,inactive
CG1537 (GeneID 32037),DRSC19662,5,inactive
CG31681 (GeneID 318882),DRSC00107,7,inactive
CG31681 (GeneID 318882),DRSC25893,6,inactive
Eh (GeneID 42101),DRSC16660,8,inactive
CG32391 (GeneID 318007),DRSC08865,3,inactive
OS9 (GeneID 59167),DRSC02700,6,inactive
OS9 (GeneID 59167),DRSC27743,7,inactive

Already shown: entries from further up.
gene,dsRNA,"mitotic cells, replicate 1",Outcome
Eig71Eg (GeneID 39708),DRSC11154,2,inactive
CG11694 (GeneID 40985),DRSC14354,5,inactive
CG11694 (GeneID 40985),DRSC24061,2,inactive
CG15471 (GeneID 31412),DRSC18054,6,inactive
CG15471 (GeneID 31412),DRSC26243,7,inactive
CG32700 (GeneID 31896),DRSC17857,7,inactive
CG32700 (GeneID 31896),DRSC17858,7,inactive
Tmem63 (GeneID 35779),DRSC06063,7,inactive
Tmem63 (GeneID 35779),DRSC27402,4,inactive
CG30053 (GeneID 246419),DRSC07260,5,inactive
Tsp66E (GeneID 39017),DRSC09683,7,inactive
Teh2 (GeneID 38502),DRSC08458,3,inactive
Teh2 (GeneID 38502),DRSC29037,2,inactive
CG4042 (GeneID 40291),DRSC11751,5,inactive
CG4042 (GeneID 40291),DRSC29114,6,inactive
CG8312 (GeneID 41163),DRSC16406,6,inactive
CG13566 (GeneID 37813),DRSC04203,2,inactive
